Experimental data published in PubChem BioAssay AID493014 (National Center for Advancing Translational Sciences (NCATS), 2011).
This is one part of the list. Further columns of the screen follow, without active or inactive calls. The list favours compounds with an active or inconclusive main result. Potencies come from curve fits of mixed quality, noted in brackets.

Assay: qHTS Assay to Find Inhibitors of Chronic Active B-Cell Receptor Signaling
Conditions: ABC-DLBCL IkBa-CBG/CBR reporter, luminescence ratio (green luciferase fused to IkBa over red control in TMD8 lymphoma cells), 4 h
How it was run: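 TMD8 ABC-DLBCL cells carrying doxycycline-inducible green luciferase fused to IkappaBalpha plus unfused red luciferase were exposed to compounds (up to 46 uM) for 4 hrs at 37C. Activity came from the overlap-corrected green/red luminescence ratio.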

[1] = measured here: CBR red luminescence, cell number
[2] = measured here: IkBa-CBG green luminescence

| SMILES | AC50 [1] | AC50 [2] |
| --- | --- | --- |
| N#C/C(=C\c1ccncc1)c1ccc(NC(N)=O)cc1 | 0.398 µM [rising, single point] | – |
| Cc1ccc2nc(Cl)c(/C=N/n3c(C)nnc3C)cc2c1 | 3.55 µM [rising, full curve, poor fit] | – |
| COc1ccc(-c2nc(CN(CC3CCC(=O)N3)C(C)C)c(C)o2)c(C)c1C (centres undefined) | 35.5 µM [falling, single point] | – |
| COC(=O)Nc1ccc(S(=O)(=O)N2CCCCC2C(=O)NCc2ccco2)cc1 (centres undefined) | 29.1 µM [rising, single point] | – |
| C=C[C@@H]1c2c(F)cccc2N(S(=O)(=O)c2ccc(C)cc2)[C@H](c2ccc(OC(C)=O)cc2)C1(C#N)C#N | 23.1 µM [falling, single point] | – |
| COc1ccc(OCC(=O)Nc2cc(OC)cc(OC)c2)cc1 | 7.08 µM [falling, partial curve] | – |
| COc1cccc(C(=O)Nc2ccc(S(=O)(=O)Nc3onc(C)c3C)cc2)c1 | 5.62 µM [falling, partial curve, poor fit] | – |
| N#Cc1c(SCC(=O)N2CCCCC2)nsc1SCC(=O)N1CCCCC1 | 0.366 µM [rising, full curve, poor fit] | – |
| O=C1C=C(NCC2CCCO2)C2(CCCCC2)O1 (centres undefined) | 1.26 µM [rising, partial curve, poor fit] | – |
| C/C(=N\NC(=O)c1ccn(C)n1)c1ccc(NC(=O)C2CCC2)cc1 | 17.8 µM [falling, single point] | – |
| COc1cc(Br)cc(/C=C/c2ccc3cccc(O)c3n2)c1OC | 22.4 µM [rising, partial curve, poor fit] | – |
| COC(=O)CS(=O)(=O)c1nnc([C@H](Cc2ccccc2)NC(=O)OC(C)(C)C)o1 | 7.31 µM [falling, partial curve] | – |
| Cc1cc2c(cc1S(=O)(=O)NCCc1ccc(Cl)cc1)OCC(=O)N2 | 5.62 µM [rising, single point] | – |
| CCOC(=O)C1=C(O)c2ccccc2C(=O)/C1=C\c1ccc(CC)cc1 | 1.3 µM [falling, partial curve, poor fit] | 18.4 µM [falling, partial curve, poor fit] |
| Cc1ccc(CSc2nnc(-c3cccnc3)o2)cc1 | 0.231 µM [rising, full curve, poor fit] | – |
| CCOc1ccc(-c2csc(NC(=O)C3CCCO3)n2)cc1 (centres undefined) | 2.91 µM [rising, full curve] | – |
| CCOC(=O)c1ccc(NC(=S)NNC(C)(C)C)cc1 | 12.6 µM [falling, partial curve] | 7.08 µM [falling, partial curve] |
| CC(=O)c1ccc(-c2cccs2)s1 | 12.6 µM [rising, single point] | – |
| CC1=C(C)/C(=N/OC(=O)c2cccc([N+](=O)[O-])c2)C=CC1=O | 9.2 µM [falling, single point] | – |
| COc1ccccc1NC(=O)c1cnc(SCC(=O)N2CCCc3ccccc32)n(C)c1=O | 0.282 µM [falling, full curve, poor fit] | 0.562 µM [rising, full curve, poor fit] |

| SMILES | AC50 [1] | AC50 [2] |
| --- | --- | --- |
| COC(=O)Cc1[nH]n(-c2nc3ccccc3s2)c(=O)c1C(C)=Nc1ccc(OC)cc1 | 7.08 µM [falling, partial curve, poor fit] | – |
| Cc1cccc2sc(NC(=O)CN(C)S(=O)(=O)c3ccc(Br)s3)nc12 | 20.6 µM [falling, partial curve, poor fit] | – |
| CC(C)(C)c1cc(NC(=O)Nc2ccc(Cl)cc2Cl)no1 | 15.8 µM [rising, partial curve] | – |
| O=S(=O)(c1ccc(Br)cc1)N1CCN(Cc2ccco2)CC1 | 6.31 µM [rising, single point] | – |
| Cc1ccc(OCCNC(=O)c2ccco2)cc1C | 0.0058 µM [rising, full curve, poor fit] | – |
| Cc1nc(-c2ccccn2)nc(SCC(=O)N2CCOCC2)c1Cl | 10 µM [rising, partial curve, poor fit] | – |
| Cc1sc2nc(C(C)C)oc(=O)c2c1C | 2.59 µM [rising, full curve, poor fit] | – |
| CN(C)c1ccc(/C=C2\SC(=O)N(CC(O)Cn3c4ccccc4c4ccccc43)C2=O)cc1 (centres undefined) | 32.6 µM [rising, partial curve, poor fit] | – |
| COc1ccc(NC(=O)Cn2nnc(-c3ccccc3NS(=O)(=O)c3ccccc3)n2)cc1 | 29.1 µM [falling, single point] | – |
| CCOC(=O)Nc1ccc2c(c1)N(C(=O)CCN(C)C)c1ccccc1CC2 | 15.8 µM [falling, single point] | – |
| Cc1nn(-c2ccccn2)c2c1C(=O)C(Br)CC2 (centres undefined) | 35.5 µM [falling, single point] | – |
| CCc1c(O)nc(SCC(=O)Nc2ccc(Br)cc2)n(-c2ccc(C)cc2)c1=O | 35.5 µM [falling, single point] | – |
| COc1ccc2cc(C(N)=O)/c(=N\NC(=O)c3ccccc3)oc2c1 | 0.501 µM [falling, full curve, poor fit] | – |
| O=C(c1cccs1)N1CCN(c2ccc(F)cc2)CC1 | 29.1 µM [rising, single point] | – |
| c1ccc(-c2csc3ncnc(NCC4COc5ccccc5O4)c23)cc1 (centres undefined) | 29.1 µM [falling, single point] | – |
| O=C(O)c1ccc(NNC(=S)Nc2cc(C(F)(F)F)ccc2Cl)cc1 | 2 µM [falling, full curve, poor fit] | – |
| CC(C)Nc1oc(-c2cccc3ccccc23)nc1C#N | 7.08 µM [rising, partial curve] | – |
| Cc1c(C#N)c(NC(=O)CCl)n(Cc2ccccc2)c1C | 6.31 µM [falling, single point] | – |
| Cc1ccc(Sc2ccc(NC(=O)CCl)cc2)cc1C | 29.1 µM [falling, single point] | 18.4 µM [falling, partial curve, poor fit] |
| CCCCn1nc2cc(C(=O)NCC3CC3)ccc2c1OCC | 2.82 µM [rising, full curve, poor fit] | – |

Two entries drawn at random from those above, as already listed:

| SMILES | AC50 [1] | AC50 [2] |
| --- | --- | --- |
| COC(=O)Cc1[nH]n(-c2nc3ccccc3s2)c(=O)c1C(C)=Nc1ccc(OC)cc1 | 7.08 µM [falling, partial curve, poor fit] | – |
| CN(C)c1ccc(/C=C2\SC(=O)N(CC(O)Cn3c4ccccc4c4ccccc43)C2=O)cc1 (centres undefined) | 32.6 µM [rising, partial curve, poor fit] | – |
